Experimental data: patent publication US12297164B2, “Benzidine compound and application thereof” (Guangzhou IMD therapeutics Co., Ltd., priority 2019, dated 2025)

System: Du145 (AR-negative prostate cancer)
Test: Cell-Titer GLO cell inhibition
Type: cell-based
Conditions: Homo sapiens, DU-145, 72 to 144 hours, ~ = estimate
Excerpt: The inhibition curve was fitted by GraphPad Prism software to obtain IC50.

SMILES: CNC(=O)c1ccc(N2C(=S)N(c3ccc(C#N)c(C(F)(F)F)c3)C(=O)C2(C)C)cc1F [Enzalutamide]
- IC50: 44.7 ± 0.93 µM
